Changes are numbered by the printed parent chain. No constants are given. Whether binding was seen depends on the method and setting. Some entries that bind do so weakly or less than the wild type. Sequences can lack the tags named with a protein.
Experiments:
[1] = molecular target: T1, MEIG1 W50A/Y68A double mutant, two-hybrid fusion from MEIG1/pGBKT7 (mouse) (UniProt Q61845); assay: two-hybrid; AH109 co-transformed with PACRG/pGADT7 and wild-type or mutant MEIG1/pGBKT7; growth on drop-out medium lacking tryptophan, leucine and histidine (His3 reporter); empty pGADT7 as negative control
T1 sequence: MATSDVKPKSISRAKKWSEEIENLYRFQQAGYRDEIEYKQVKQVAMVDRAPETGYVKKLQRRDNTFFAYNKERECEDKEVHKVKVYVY

Chains of the proteins cited; added tags and fusions are not shown.
UniProt Q9DAK2: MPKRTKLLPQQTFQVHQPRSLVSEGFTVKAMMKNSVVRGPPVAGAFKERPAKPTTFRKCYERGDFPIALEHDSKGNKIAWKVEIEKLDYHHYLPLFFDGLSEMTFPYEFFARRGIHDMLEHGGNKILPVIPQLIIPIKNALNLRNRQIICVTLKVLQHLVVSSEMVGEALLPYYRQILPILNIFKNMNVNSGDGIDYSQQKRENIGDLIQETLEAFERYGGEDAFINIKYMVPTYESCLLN

[2] = molecular target: T2, MEIG1 wild type, two-hybrid fusion from MEIG1/pGBKT7 (mouse) (UniProt Q61845); assay: as above
T2 sequence: T1 sequence with A50W, A68Y

[3] = molecular target: T3, MEIG1 W50A, two-hybrid fusion from MEIG1/pGBKT7 (mouse) (UniProt Q61845); assay: as above
T3 sequence: T1 sequence with A68Y

[4] = molecular target: T4, MEIG1 F66A, two-hybrid fusion from MEIG1/pGBKT7 (mouse) (UniProt Q61845); assay: as above
T4 sequence: T1 sequence with A50W, F66A, A68Y

[5] = molecular target: T5, MEIG1 K57E, two-hybrid fusion from MEIG1/pGBKT7 (mouse) (UniProt Q61845); assay: as above
T5 sequence: T1 sequence with A50W, K57E, A68Y

[6] = molecular target: T1, MEIG1 W50A/Y68A double mutant, two-hybrid fusion from MEIG1/pGBKT7 (mouse); assay: two-hybrid; AH109 co-transformed with PACRG/pGADT7 and wild-type or mutant MEIG1/pGBKT7; binding strength by alpha-galactosidase reporter activity in culture supernatant (PNP-alpha-Gal, 30 °C, 3 h, OD410); p53/pGBKT7 with large T antigen/pGADT7 as positive control
[7] = molecular target: T2, MEIG1 wild type, two-hybrid fusion from MEIG1/pGBKT7 (mouse); assay: as above
[8] = molecular target: T3, MEIG1 W50A, two-hybrid fusion from MEIG1/pGBKT7 (mouse); assay: as above
[9] = molecular target: T4, MEIG1 F66A, two-hybrid fusion from MEIG1/pGBKT7 (mouse); assay: as above
[10] = molecular target: T5, MEIG1 K57E, two-hybrid fusion from MEIG1/pGBKT7 (mouse); assay: as above

binding [1]: binds
binding [2]: binds
binding [3]: binds
binding [4]: binds
binding [5]: binds
binding [6]: binds
binding [7]: binds
binding [8]: binds
binding [9]: binds
binding [10]: binds
Substance: Parkin co-regulated gene protein (PACRG), two-hybrid fusion from PACRG/pGADT7 (from UniProt Q9DAK2 1-241)
